Test results reported in PMC12902025.
Results are given in words; binding and its absence hold for the method and conditions named. In cells and extracts the contact can be indirect. Some entries that bind do so weakly or less than the wild type.

Protein sequences, listed by entry. Tags and fused reporters are not part of them. Residues count along the entry.
UniProt P06731, residues 35-685: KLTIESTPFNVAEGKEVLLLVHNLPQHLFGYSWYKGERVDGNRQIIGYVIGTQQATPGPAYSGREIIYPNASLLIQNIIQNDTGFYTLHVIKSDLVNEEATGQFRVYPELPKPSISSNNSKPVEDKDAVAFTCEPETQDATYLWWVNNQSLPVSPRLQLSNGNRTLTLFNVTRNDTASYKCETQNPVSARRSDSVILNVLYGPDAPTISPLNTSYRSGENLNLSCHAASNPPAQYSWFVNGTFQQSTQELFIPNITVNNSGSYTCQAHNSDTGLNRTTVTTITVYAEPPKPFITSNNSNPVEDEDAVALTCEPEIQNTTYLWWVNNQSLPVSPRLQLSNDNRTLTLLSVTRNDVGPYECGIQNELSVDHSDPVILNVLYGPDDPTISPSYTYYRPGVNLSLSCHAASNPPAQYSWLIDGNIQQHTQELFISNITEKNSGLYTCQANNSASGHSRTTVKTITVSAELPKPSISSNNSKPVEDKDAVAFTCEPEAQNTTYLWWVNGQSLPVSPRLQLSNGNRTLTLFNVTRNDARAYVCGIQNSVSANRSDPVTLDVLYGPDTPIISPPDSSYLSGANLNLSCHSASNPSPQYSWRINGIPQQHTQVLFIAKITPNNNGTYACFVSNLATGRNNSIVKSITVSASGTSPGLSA
UniProt P06733: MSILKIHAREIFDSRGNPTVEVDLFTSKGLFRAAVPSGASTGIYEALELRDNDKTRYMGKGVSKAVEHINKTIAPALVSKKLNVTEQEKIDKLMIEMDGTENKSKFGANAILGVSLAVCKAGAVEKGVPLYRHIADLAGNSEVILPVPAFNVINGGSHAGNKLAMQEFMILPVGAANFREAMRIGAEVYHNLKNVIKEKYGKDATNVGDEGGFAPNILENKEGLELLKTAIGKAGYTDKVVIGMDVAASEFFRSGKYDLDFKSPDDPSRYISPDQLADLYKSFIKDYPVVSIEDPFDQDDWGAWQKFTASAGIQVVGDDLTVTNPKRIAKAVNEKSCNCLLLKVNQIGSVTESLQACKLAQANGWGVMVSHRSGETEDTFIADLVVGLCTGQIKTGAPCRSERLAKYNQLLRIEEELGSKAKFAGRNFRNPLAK
UniProt P09104: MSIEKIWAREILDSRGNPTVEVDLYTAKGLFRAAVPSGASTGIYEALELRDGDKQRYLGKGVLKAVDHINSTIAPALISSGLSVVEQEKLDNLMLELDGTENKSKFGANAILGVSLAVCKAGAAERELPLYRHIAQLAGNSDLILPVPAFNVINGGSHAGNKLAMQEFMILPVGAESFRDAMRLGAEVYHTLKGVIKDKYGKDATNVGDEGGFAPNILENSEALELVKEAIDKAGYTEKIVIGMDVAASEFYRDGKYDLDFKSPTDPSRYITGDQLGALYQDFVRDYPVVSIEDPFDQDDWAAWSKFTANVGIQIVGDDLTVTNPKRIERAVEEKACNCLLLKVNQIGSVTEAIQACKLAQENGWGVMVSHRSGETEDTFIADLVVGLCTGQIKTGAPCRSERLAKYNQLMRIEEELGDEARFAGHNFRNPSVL

T1: HSPA13 (UniProt P48723)
T1 sequence: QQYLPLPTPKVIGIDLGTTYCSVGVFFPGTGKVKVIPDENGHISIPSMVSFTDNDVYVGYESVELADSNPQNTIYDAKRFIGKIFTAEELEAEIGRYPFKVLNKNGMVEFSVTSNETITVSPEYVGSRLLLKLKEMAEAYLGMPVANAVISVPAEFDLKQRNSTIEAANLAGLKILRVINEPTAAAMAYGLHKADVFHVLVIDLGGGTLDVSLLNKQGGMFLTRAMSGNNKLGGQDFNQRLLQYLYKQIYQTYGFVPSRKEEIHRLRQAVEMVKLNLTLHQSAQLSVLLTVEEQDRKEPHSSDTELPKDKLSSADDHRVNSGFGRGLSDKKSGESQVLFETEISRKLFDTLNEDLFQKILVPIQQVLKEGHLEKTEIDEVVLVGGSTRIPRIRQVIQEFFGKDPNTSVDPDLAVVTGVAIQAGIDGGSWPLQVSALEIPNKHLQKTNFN


Target: T1, HSPA13
Experiment: co-IP; HSPA13 immunoprecipitation on isolated supermere fractions (intact particles); depletion of the other proteins from the supermere fraction relative to isotype control

binding | Molecule
binds | CEA (CEACAM5) (from UniProt P06731 35-685)
binds | ENO1 (from UniProt P06733 1-434)
binds | ENO2 (from UniProt P09104 1-434)
binds | transforming growth factor beta induced (TGFBI) (protein, UniProt Q15582 24-683) GPAKSPYQLVLQHSRLRGRQHGPNVCAVQKVIGTNRKYFTNCKQWYQRKICGKSTVISYECCPGYEKVPGEKGCPAALPLSNLYETLGVVGSTTTQLYTDRTEKLRPEMEGPGSFTIFAPSNEAWASLPAEVLDSLVSNVNIELLNALRYHMVGRRVLTDELKHGMTLTSMYQNSNIQIHHYPNGIVTVNCARLLKADHHATNGVVHLIDKVISTITNNIQQIIEIEDTFETLRAAVAASGLNTMLEGNGQYTLLAPTNEAFEKIPSETLNRILGDPEALRDLLNNHILKSAMCAEAIVAGLSVETLEGTTLEVGCSGDMLTINGKAIISNKDILATNGVIHYIDELLIPDSAKTLFELAAESDVSTAIDLFRQAGLGNHLSGSERLTLLAPLNSVFKDGTPPIDAHTRNLLRNHIIKDQLASKYLYHGQTLETLGGKKLRVFVYRNSLCIENSCIAAHDKRGRYGTLFTMDRVLTPPMGTVMDVLKGDNRFSMLVAAIQSAGLTETLNREGVYTVFAPTNEAFRALPPRERSRLLGDAKELANILKYHIGDEILVSGGIGALVRLKSLQGDKLEVSLKNNVVSVNKEPVAEPDIMATNGVVHVITNVLQPPANRPQERGDELADSALEIFKQASAFSRASQRSVRLAPVYQKLLERMKH
binds | GPC1 (protein, UniProt P35052 24-530) DPASKSRSCGEVRQIYGAKGFSLSDVPQAEISGEHLRICPQGYTCCTSEMEENLANRSHAELETALRDSSRVLQAMLATQLRSFDDHFQHLLNDSERTLQATFPGAFGELYTQNARAFRDLYSELRLYYRGANLHLEETLAEFWARLLERLFKQLHPQLLLPDDYLDCLGKQAEALRPFGEAPRELRLRATRAFVAARSFVQGLGVASDVVRKVAQVPLGPECSRAVMKLVYCAHCLGVPGARPCPDYCRNVLKGCLANQADLDAEWRNLLDSMVLITDKFWGTSGVESVIGSVHTWLAEAINALQDNRDTLTAKVIQGCGNPKVNPQGPGPEEKRRRGKLAPRERPPSGTLEKLVSEAKAQLRDVQDFWISLPGTLCSEKMALSTASDDRCWNGMARGRYLPEVMGDGLANQINNPEVEVDITKPDMTIRQQIMQLKIMTNRLRSAYNGNDVDFQDASDDGSGSGSGDGCLDDLCSRKVSRKSSSSRTPLTHALPGLSEQEGQKTS
